The values below come from US20260217833A1.

By UniProt entry, the sequences of proteins in these tests, tags left out. Where a name states a change or a piece, a line headed by the entry shows the natural chain unless it says otherwise.
UniProt P25942: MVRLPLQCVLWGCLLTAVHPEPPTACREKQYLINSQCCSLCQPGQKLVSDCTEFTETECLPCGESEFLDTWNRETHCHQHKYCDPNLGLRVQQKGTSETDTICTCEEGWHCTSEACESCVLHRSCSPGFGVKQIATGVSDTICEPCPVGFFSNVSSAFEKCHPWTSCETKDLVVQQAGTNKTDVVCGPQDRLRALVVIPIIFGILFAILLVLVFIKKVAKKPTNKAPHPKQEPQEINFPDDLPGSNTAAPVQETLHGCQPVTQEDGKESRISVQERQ

Results are given in words; binding and its absence hold for the method and conditions named. Some binding calls cover weakened binding; strength is not graded here.

For experiment [1], the target named is human CD40 full-length (human) (UniProt P25942). In words: flow cytometry, CHOK1SV/human CD40 cells.
The target is the same in experiment [2]. In words: binding to cells expressing full length human- or cyno-CD40, unpurified small-scale material.

B1: CD4001132 (Fc fusion, not shown: a dimerising Fc or GST)
chain: DVQMTQSPILLSASVGDRVTITCRSSQSLVHYNGYTYVHWYQQKPGKAPKLLIYKVSNLFSGVPSRFSGSGSGTDFTLTISSLQPEDIADYFCQQTTHVPLTFGAGTKVEIKGGGGSGGGGSGGGGSGGGGSEVQLVESGGGLVQPGGSLRLSCAASGFTFSSYAMSWVRQAPGKGLEWVSAISSAGTYIYYADSVKGRFTISRDNSKNTLYLQMNSLRAEDTAVYYCARHGNGYDPLWYFDVWGQGTTVTVSS
As to B1, the binding entry in experiment [1] is on record as “binds”.

B2: CD4001089 (Fc fusion, not shown: a dimerising Fc or GST)
chain: DVQMTQSPILLSASVGDRVTITCRSSQSLVHYNGYTYVHWYQQRTNGSPRLLIYKVSNRFSGVPDRFSGSGSGTDFTLTISSLQPEDIADYFCQQTTHVPLTFGAGTKVEIKGGGGSGGGGSGGGGSGGGGSEVQLVESGGGLVQPGRSLRLSCAASGFTFSSYAMSWVRQAPGKGLEWVASISSAGTYIYYADSVQGRFTISRDNGKNSLYLQMNSLRAEDTALYYCARHGNGYDPLWYFDVWGQGTMVTVSS
As to B2, the binding result in experiment [1] and in experiment [2] was “binds” in each case.
